Among the data in US6448031 (dated 2002) are step yield values, retold here.

[ ]: non-standard residue; d: D form. The star is where a group is joined. Arg(NO2) = N=C(NCCC[C@H](N)C(=O)O)N[N+](=O)[O-]; Tos = Cc1ccc(S(=O)(=O)*)cc1; Cbz = O=C(OCc1ccccc1)*; Boc = CC(C)(C)OC(=O)*; azaGly = NNC(=O)O; tBu = CC(C)(C)*

A short description of one data set: general procedure: hybrid (solid and solution phase) peptide synthesis; p-methylbenzhydrylamine (MBHA) resin, PEPTIDE INSTITUTE, INC., amino group 0.72 mmol/g; DCC/HOBt (solid phase); mixed anhydride, azide, WSC/HOSu (solution); chymotrypsi. Conditions: coupling step.
Boc-[dL]LR(Tos)P-NHEt registered a step yield of 92.1%.

As for Cbz-L[Arg(NO2)]P[azaGly]-NH2, the step yield was 98.6%.

For Cbz-SY[dL]LR(Tos)P-NHEt, the step yield is reported as 83.2%. In turn, Cbz-SY[dS](tBu)LRP-NHEt had a step yield of 87.5%. The same measure, in the same setting: to Cbz-SY[dS](tBu)LRP[azaGly]-NH2 belongs 78.6%.

On to Cbz-[dS](tBu)LRP[azaGly]-NH2, for which the step yield is recorded as 78.3%.

As for “pGlu-D-His-Trp-OMe + H-Ser-Tyr-D-Ser(tBu)-Leu-Arg-Pro-NHEt”, the step yield worked out at 7.8%. In turn, “pGlu-His-D-Trp-OMe + H-Ser-Tyr-D-Ser(tBu)-Leu-Arg-Pro-NHEt” registered a step yield of 0.0%. On the same count and under the same terms, then “pGlu-His-Trp-OMe + H-D-Ser-Tyr-D-Ser(tBu)-Leu-Arg-Pro-NHEt”, with 0.0%; and “pGlu-His-Trp-Ser-Tyr-(2-naphthyl)-D-Ala-Leu-Arg-Pro-Gly-NH2”, with 76.2%; and “pGlu-His-Trp-Ser-Tyr-D-Leu-Leu-Arg-Pro-NHEt”, with 76.4%. On the same count and under the same terms, to “pGlu-His-Trp-Ser-Tyr-D-Ser(But)-Leu-Arg-Pro-Azgly-NH2” belongs 75.9%; to “pGlu-His-Trp-Ser-Tyr-D-Trp-Leu-Arg-Pro-Gly-NH2”, 75.45%; to “pGlu-His-Trp-Ser-Tyr-Gly-Leu-Arg-Pro-Gly-NH2”, 76.3%.

The same data set, now with this note: coupling step; run 1.
Cbz-[dS](tBu)LRP-NHEt yielded a step yield of 90.5%. With “pGlu-His-Trp-Ser-Tyr-D-Ser(But)-Leu-Arg-Pro-NHEt”, the step yield was 74.9%.

Still in this data set, the particulars now being: coupling step; run 2.
Consider Cbz-[dS](tBu)LRP-NHEt, for which the step yield came to 91.2%. “pGlu-His-Trp-Ser-Tyr-D-Ser(But)-Leu-Arg-Pro-NHEt” had a step yield of 82.4%.

Staying with this data set, now noted: coupling step; run 3.
Substance “pGlu-His-Trp-Ser-Tyr-D-Ser(But)-Leu-Arg-Pro-NHEt” gave a step yield of 78.8%.

The data set is the same for the next values; noted with them: late stage modification step.
H-SY[dL]LRP-NHEt yielded a step yield of 92.4%. On the same count and under the same terms, to H-SY[dS](tBu)LRP-NHEt belongs 90.3%; to H-SY[dS](tBu)LRP[azaGly]-NH2, 94.6%.
